Measured values reported in the supplement of paper PMC4604168 (melanoma cell lines).
Some of the results follow. Many values rest on one well or one pass, so single values are uncertain.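 The apoptosis fraction was the count of cleaved-PARP antibody-stained nuclei relative to all DNA-stained nuclei, imaged in 1,536-well plates. Screening doses were set so most cells survived, and baseline and induced cleaved-PARP levels vary greatly across cell lines.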

How the values were obtained:
Experiment in all cases: cleaved PARP positive nuclei fraction relative to DMSO control; melanoma cells; higher = more apoptosis
Details in all cases: library dose: low library concentration; 72 h
A101D = system: A101D
A2058 = system: A2058
A375 = system: A375
C32 = system: C32
CBRC008 = system: CBRC008 (line from a melanoma biopsy)
CBRC014 = system: CBRC014 (line from a melanoma biopsy)
CBRC016 = system: CBRC016 (line from a melanoma biopsy)
CBRC017 = system: CBRC017 (line from a melanoma biopsy)

SMILES | cleaved PARP positive nuclei fraction (A101D) [%] | cleaved PARP positive nuclei fraction (A2058) [%] | cleaved PARP positive nuclei fraction (A375) [%] | cleaved PARP positive nuclei fraction (C32) [%] | cleaved PARP positive nuclei fraction (CBRC008) [%] | cleaved PARP positive nuclei fraction (CBRC014) [%] | cleaved PARP positive nuclei fraction (CBRC016) [%] | cleaved PARP positive nuclei fraction (CBRC017) [%]
COc1cc([C@@H]2c3cc4c(cc3[C@@H](O[C@@H]3O[C@@H]5CO[C@@H](C)O[C@H]5[C@H](O)[C@H]3O)[C@H]3COC(=O)[C@H]23)OCO4)cc(OC)c1O [etoposide] + CCCS(=O)(=O)Nc1ccc(F)c(C(=O)c2c[nH]c3ncc(Cl)cc23)c1F [PLX4720] (first compound 0.02 µM, partner dose 0.08 µM) | 62.1 | 37.4 | 203 | 85.3 | 60.6 | 106 | 113 | 101
O=c1[nH]nc(Sc2ncc([N+](=O)[O-])s2)n1-c1ccc2c(c1)OCCO2 + CS(=O)(=O)c1ccc(C(=O)Nc2ccc(Cl)c(-c3ccccn3)c2)c(Cl)c1 [vismodegib] (first compound 0.2 µM, partner dose 1 µM) | 191 | 69.2 | 101 | 75.3 | 34.8 | 108 | 158 | 139
O=C(Nc1cc(C(F)(F)F)cc(C(F)(F)F)c1)c1cc(Cl)ccc1O + Cn1c(Nc2ccc(C(F)(F)F)cc2)nc2cc(Oc3ccnc(-c4ncc(C(F)(F)F)[nH]4)c3)ccc21 [CHIR265] (first compound 0.016 µM, partner dose 0.08 µM) | 57.8 | 168 | 249 | 33 | 138 | 117 | 185 | 102
O=C(/C=C/c1cccnc1)NCCCCC1CCN(C(=O)c2ccccc2)CC1 + CCN(CC)CCCCNc1ncc2cc(-c3cc(OC)cc(OC)c3)c(NC(=O)NC(C)(C)C)nc2n1 [PD173074] (first compound 0.01 µM, partner dose 0.1 µM) | 15.2 | 83.7 |  | 127 | 2880 | 95.3 | 425 | 248
O=C(Nc1cc(C(F)(F)F)cc(C(F)(F)F)c1)c1cc(Cl)ccc1O + C[C@]1(c2nc3c(C(N)=O)cccc3[nH]2)CCCN1 [Veliparib] (first compound 0.016 µM, partner dose 1.4 µM) | 105 | 120 | 136 | 62.1 | 121 | 95.9 | 147 | 101
COc1cc([C@@H]2c3cc4c(cc3[C@@H](O[C@@H]3O[C@@H]5CO[C@@H](C)O[C@H]5[C@H](O)[C@H]3O)[C@H]3COC(=O)[C@H]23)OCO4)cc(OC)c1O [etoposide] + CC(=O)c1c(C)c2cnc(Nc3ccc(N4CCNCC4)cn3)nc2n(C2CCCC2)c1=O [palbociclib] (first compound 0.02 µM, partner dose 0.04 µM) | 31.2 | 125 | 250 | 85.1 | 76.1 | 106 | 32.6 | 228
Cc1cn(-c2cc(NC(=O)c3ccc(C)c(Nc4nccc(-c5cccnc5)n4)c3)cc(C(F)(F)F)c2)cn1 [nilotinib] + CCc1ccc(CCOc2ccc(CC3SC(=O)NC3=O)cc2)nc1 [pioglitazone] (first compound 0.2 µM, partner dose 2 µM) | 17.2 | 24 |  | 211 | 79.2 | 107 | 77.1 | 61.7
O=c1[nH]nc(Sc2ncc([N+](=O)[O-])s2)n1-c1ccc2c(c1)OCCO2 + Cc1cc([N+](=O)[O-])ccc1NS(=O)(=O)c1cc(Cl)ccc1Cl [FH535] (first compound 0.2 µM, partner dose 1 µM) | 43.5 | 96.7 |  | 49.1 | 411 | 124 | 170 | 142
O=C(/C=C/c1cccnc1)NCCCCC1CCN(C(=O)c2ccccc2)CC1 + C#Cc1cccc(Nc2ncnc3cc(OCCOC)c(OCCOC)cc23)c1 [erlotinib] (first compound 0.01 µM, partner dose 0.8 µM) | 73.4 | 115 | 224 | 69.3 | 1960 | 117 | 827 | 706
CC[C@]1(O)C[C@H]2CN(CCc3c([nH]c4ccccc34)[C@@](C(=O)OC)(c3cc4c(cc3OC)N(C=O)[C@H]3[C@@](O)(C(=O)OC)[C@H](OC(C)=O)[C@]5(CC)C=CCN6CC[C@]43[C@@H]65)C2)C1 [vincristine] + C[C@@H](Oc1cc(-c2cnn(C3CCNCC3)c2)cnc1N)c1c(Cl)ccc(F)c1Cl [Crizotinib] (first compound 0.0001 µM, partner dose 0.2 µM) | 68 | 188 | 364 | 197 | 36.4 | 99.9 | 83 | 205
CCCCCCCCCCCCCCCCCCOP(=O)([O-])OC1CC[N+](C)(C)CC1 [Perifosine] + Cn1c(=O)n(-c2ccc(C(C)(C)C#N)cc2)c2c3cc(-c4cnc5ccccc5c4)ccc3ncc21 [NVP-BEZ235] (first compound 0.4 µM, partner dose 0.004 µM) | 119 | 94.8 | 348 | 67.4 | 119 | 82.5 | 102 | 112
O=c1[nH]nc(Sc2ncc([N+](=O)[O-])s2)n1-c1ccc2c(c1)OCCO2 + Nc1nc(F)nc2c1ncn2[C@@H]1O[C@H](CO)[C@@H](O)[C@@H]1O [fludarabine] (first compound 0.2 µM, partner dose 0.2 µM) | 51 | 178 | 6460 | 87.7 | 62.7 | 105 | 197 | 229
N#CC[C@H](C1CCCC1)n1cc(-c2ncnc3[nH]ccc23)cn1 [ruxolitinib] + CCN(CC)CCCCNc1ncc2cc(-c3cc(OC)cc(OC)c3)c(NC(=O)NC(C)(C)C)nc2n1 [PD173074] (first compound 1 µM, partner dose 0.1 µM) |  | 86.7 |  | 40 | 57.7 | 75 | 64.3 | 65.9
N#CC[C@H](C1CCCC1)n1cc(-c2ncnc3[nH]ccc23)cn1 [ruxolitinib] + Cn1sc(=O)n(Cc2ccccc2)c1=O [TDZD-8] (first compound 1 µM, partner dose 0.4 µM) | 95.4 | 108 | 26.3 | 66.8 | 68.7 | 87.3 | 163 | 102
Cc1cc(Nc2cc(N3CCN(C)CC3)nc(Sc3ccc(NC(=O)C4CC4)cc3)n2)n[nH]1 [Tozasertib] + Cc1cc([N+](=O)[O-])ccc1NS(=O)(=O)c1cc(Cl)ccc1Cl [FH535] (first compound 0.006 µM, partner dose 1 µM) | 10.7 | 101 |  | 169 | 488 | 154 | 335 | 356
N#CC[C@H](C1CCCC1)n1cc(-c2ncnc3[nH]ccc23)cn1 [ruxolitinib] + NC(=O)c1ccc(N(C(N)=O)c2c(F)cccc2F)nc1-c1ccc(F)cc1F [VX702] (first compound 1 µM, partner dose 0.4 µM) | 80.8 | 39.6 | 154 | 81.4 | 64 | 89.2 | 125 | 119
N#CC[C@H](C1CCCC1)n1cc(-c2ncnc3[nH]ccc23)cn1 [ruxolitinib] + c1cc(-c2cnn3cc(-c4ccc(OCCN5CCCCC5)cc4)cnc23)ccn1 [Dorsomorphin] (first compound 1 µM, partner dose 0.4 µM) | 36.4 | 64.3 |  | 253 | 54.5 | 92.2 | 5620 | 82.1
CC[C@]1(O)C[C@H]2CN(CCc3c([nH]c4ccccc34)[C@@](C(=O)OC)(c3cc4c(cc3OC)N(C=O)[C@H]3[C@@](O)(C(=O)OC)[C@H](OC(C)=O)[C@]5(CC)C=CCN6CC[C@]43[C@@H]65)C2)C1 [vincristine] + Cn1c(=O)n(-c2ccc(C(C)(C)C#N)cc2)c2c3cc(-c4cnc5ccccc5c4)ccc3ncc21 [NVP-BEZ235] (first compound 0.0001 µM, partner dose 0.004 µM) | 172 | 161 | 238 | 174 | 387 | 111 | 69.2 | 127
O=C(Nc1cc(C(F)(F)F)cc(C(F)(F)F)c1)c1cc(Cl)ccc1O + CCCCCCCCCCCC1=C(O)C(=O)C=C(O)C1=O [Embelin] (first compound 0.016 µM, partner dose 1.2 µM) | 25.1 | 173 |  | 83.7 | 57.8 | 99.4 | 44.5 | 106
N#CC[C@H](C1CCCC1)n1cc(-c2ncnc3[nH]ccc23)cn1 [ruxolitinib] + NC1(c2ccc(-c3nc4ccn5c(=O)[nH]nc5c4cc3-c3ccccc3)cc2)CCC1 [MK2206] (first compound 1 µM, partner dose 0.4 µM) | 37.5 | 147 | 102 | 75.6 | 138 | 92.1 | 103 | 90.1
COc1cc([C@@H]2c3cc4c(cc3[C@@H](O[C@@H]3O[C@@H]5CO[C@@H](C)O[C@H]5[C@H](O)[C@H]3O)[C@H]3COC(=O)[C@H]23)OCO4)cc(OC)c1O [etoposide] + O=C(Nc1cc(C(F)(F)F)cc(C(F)(F)F)c1)c1cc(Cl)ccc1O [IMD0354] (first compound 0.02 µM, partner dose 0.016 µM) | 45.3 | 135 | 296 | 181 | 127 | 87.5 | 184 | 94
N#CC[C@H](C1CCCC1)n1cc(-c2ncnc3[nH]ccc23)cn1 [ruxolitinib] + CCN(CC)CCNC(=O)c1c(C)[nH]c(/C=C2\C(=O)Nc3ccc(F)cc32)c1C [sunitinib] (first compound 1 µM, partner dose 0.4 µM) | 84.1 | 112 | 155 | 38.6 | 134 | 98 | 69.6 | 92
COc1cc([C@@H]2c3cc4c(cc3[C@@H](O[C@@H]3O[C@@H]5CO[C@@H](C)O[C@H]5[C@H](O)[C@H]3O)[C@H]3COC(=O)[C@H]23)OCO4)cc(OC)c1O [etoposide] + O=c1cc(-c2cccc3c2Sc2ccccc2S3)oc(N2CCOCC2)c1 [KU55933] (first compound 0.02 µM, partner dose 1 µM) | 26.3 | 56.5 |  | 83.8 | 147 | 87.9 | 124 | 105
COc1cc([C@@H]2c3cc4c(cc3[C@@H](O[C@@H]3O[C@@H]5CO[C@@H](C)O[C@H]5[C@H](O)[C@H]3O)[C@H]3COC(=O)[C@H]23)OCO4)cc(OC)c1O [etoposide] + COC(=O)c1sccc1S(=O)(=O)Nc1ccc(Nc2ccccc2)cc1OC [GSK0660] (first compound 0.02 µM, partner dose 1 µM) | 19.6 | 57 |  | 59.9 | 150 | 129 | 103 | 82
CC[C@]1(O)C[C@H]2CN(CCc3c([nH]c4ccccc34)[C@@](C(=O)OC)(c3cc4c(cc3OC)N(C=O)[C@H]3[C@@](O)(C(=O)OC)[C@H](OC(C)=O)[C@]5(CC)C=CCN6CC[C@]43[C@@H]65)C2)C1 [vincristine] + COC(=O)c1sccc1S(=O)(=O)Nc1ccc(Nc2ccccc2)cc1OC [GSK0660] (first compound 0.0001 µM, partner dose 1 µM) | 11.5 | 1840 |  | 93.5 | 313 | 105 | 105 | 137
O=C(Nc1cc(C(F)(F)F)cc(C(F)(F)F)c1)c1cc(Cl)ccc1O + Cc1cc([N+](=O)[O-])ccc1NS(=O)(=O)c1cc(Cl)ccc1Cl [FH535] (first compound 0.016 µM, partner dose 1 µM) | 9.38 | 160 |  | 72.4 | 496 | 154 | 2120 | 346
CCCCCCCCCCCCCCCCCCOP(=O)([O-])OC1CC[N+](C)(C)CC1 [Perifosine] + CO[C@H]1C[C@@H]2CC[C@@H](C)[C@@](O)(O2)C(=O)C(=O)N2CCCC[C@H]2C(=O)O[C@H]([C@H](C)C[C@@H]2CC[C@@H](OCCO)[C@H](OC)C2)CC(=O)[C@H](C)/C=C(\C)[C@@H](O)[C@@H](OC)C(=O)[C@H](C)C[C@H](C)/C=C/C=C/C=C/1C [everolimus] (first compound 0.4 µM, partner dose 0.02 µM) | 43.9 | 82.2 | 594 | 91.6 | 66 | 213 | 80 | 93.5
Cc1ccc(Nc2nccc(N(C)c3ccc4c(C)n(C)nc4c3)n2)cc1S(N)(=O)=O [Pazopanib] + CC(C)CCN1c2nc(Nc3cc(F)c(O)c(F)c3)ncc2N(C)C(=O)C1C [BID1870] (first compound 0.4 µM, partner dose 0.2 µM) | 21.2 | 27.1 |  | 49.6 | 202 | 101 | 88.3 | 177
O=c1[nH]nc(Sc2ncc([N+](=O)[O-])s2)n1-c1ccc2c(c1)OCCO2 + CS(=O)(=O)CCNCc1ccc(-c2ccc3ncnc(Nc4ccc(OCc5cccc(F)c5)c(Cl)c4)c3c2)o1 [lapatinib] (first compound 0.2 µM, partner dose 0.8 µM) | 84.6 | 221 | 31.1 | 80.9 | 109 | 112 | 94.3 | 122

Part of the list above with just cleaved PARP positive nuclei fraction (A101D) [%] and cleaved PARP positive nuclei fraction (A375) [%]:
SMILES	cleaved PARP positive nuclei fraction (A101D) [%]	cleaved PARP positive nuclei fraction (A375) [%]
N#CC[C@H](C1CCCC1)n1cc(-c2ncnc3[nH]ccc23)cn1 [ruxolitinib] + CCN(CC)CCNC(=O)c1c(C)[nH]c(/C=C2\C(=O)Nc3ccc(F)cc32)c1C [sunitinib] (first compound 1 µM, partner dose 0.4 µM)	84.1	155
COc1cc([C@@H]2c3cc4c(cc3[C@@H](O[C@@H]3O[C@@H]5CO[C@@H](C)O[C@H]5[C@H](O)[C@H]3O)[C@H]3COC(=O)[C@H]23)OCO4)cc(OC)c1O [etoposide] + O=c1cc(-c2cccc3c2Sc2ccccc2S3)oc(N2CCOCC2)c1 [KU55933] (first compound 0.02 µM, partner dose 1 µM)	26.3	
